Reference: PubChem BioAssay AID504786 (Drosophila RNAi Screening Center, 2011)

Purpose: 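Knock-downs reducing HIF reporter induction by the iron chelator DFO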 (primary screen)
Cells: Drosophila S2 cells with a stable HIF luciferase reporter
Reagents: long dsRNA against Drosophila genes, about 0.2 µg dsRNA per well of a 384-well plate
Time to read-out: three days of knock-down, then 20 h of DFO before reading
Treatment: desferrioxamine (DFO) at 100 µM, an iron chelator that mimics hypoxia, for 20 h
Measurement: 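HIF reporter luminescence in cells given 100 µM DFO for 20 h, using the mouse ldh-a hypoxia-response element, scored as per-plate z-scores; higher means greater loss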
Reading the numbers: z-score: higher = stronger loss of HIF reporter signal
In all, the deposit lists about 21,000 reagents; this is an unselected part of those with a known target gene and a result. 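Primary screen; positive scores mean lost reporter signal, so the sign may be inverted from the usual convention.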 The numbers tell different reagents against one gene apart. Names joined by + are all predicted targets of the reagent. Reagent sequences are not shown.

The first 3 records as a preview:
| predicted target | reagent | z-score, replicate 1 | z-score, replicate 2 | z-score, replicate 3 | z-score, replicate 4 |
| --- | --- | --- | --- | --- | --- |
| CG31368 | 1 | -0.3 | -0.1 | – | – |
| CG31368 | 2 | -0.4 | -0.7 | – | – |
| Or92a (Odorant receptor 92a) | 1 | 0.7 | -0.4 | – | – |

Results, repeating the preview:
| predicted target | reagent | z-score, replicate 1 | z-score, replicate 2 | z-score, replicate 3 | z-score, replicate 4 |
| --- | --- | --- | --- | --- | --- |
| CG31368 | 1 | -0.3 | -0.1 | – | – |
| CG31368 | 2 | -0.4 | -0.7 | – | – |
| Or92a (Odorant receptor 92a) | 1 | 0.7 | -0.4 | – | – |
| conu (conundrum) | 1 | -0.1 | 0.2 | – | – |
| Nf1 (Neurofibromin 1) | 1 | -0.3 | 0 | – | – |
| PIG-T (Phosphatidylinositol glycan anchor biosynthesis class T) | 1 | -0.3 | -0.6 | – | – |
| vnd (ventral nervous system defective) | 1 | -0.3 | 0.4 | – | – |
| vnd (ventral nervous system defective) | 2 | -0.4 | -0.1 | 0.8 | 0.3 |
| Max | 1 | -0.2 | 0.1 | – | – |
| Gr57a (Gustatory receptor 57a) | 1 | -0.4 | -0.5 | – | – |
| CG14220 | 1 | -0.3 | -0.7 | – | – |
| luna | 1 | -0.2 | -0.2 | – | – |
| luna | 2 | 3.1 | 3.7 | – | – |
| luna | 3 | -0.1 | -0.2 | 0.3 | -0.2 |
| Mpp6 (M-phase phosphoprotein 6) | 1 | 0.2 | 0.7 | – | – |
| cora (coracle) | 1 | -0.2 | -0.2 | – | – |
| CG6000 | 1 | -0.2 | -0.3 | – | – |
| CG8726 | 1 | -0.3 | 0.4 | – | – |
| GABA-B-R2 (metabotropic GABA-B receptor subtype 2) | 1 | -0.3 | -0.6 | – | – |
| CG11380 | 1 | -0.2 | 0.3 | – | – |
| CG3631 | 1 | -0.4 | -0.6 | – | – |
| CG13312 | 1 | -0.3 | 0 | – | – |
| CG8372 | 1 | -0.2 | -0.5 | – | – |
| Pbp95 (PSEA-binding protein 95kD) | 1 | 0.1 | -0.5 | – | – |
| CG13476 | 1 | -0.3 | -0.2 | – | – |
| CG32719 | 1 | -0.1 | -0.1 | – | – |
| lectin-46Cb | 1 | -0.2 | -0.4 | – | – |
| Cnx14D (Calnexin 14D) | 1 | -0.1 | -0.3 | – | – |
| RpS26 (Ribosomal protein S26) | 1 | -0.2 | 6 | – | – |
| CG13800 (retired record) | 1 | -0.1 | -0.3 | – | – |
| Cse1 (Chromosome segregation 1) | 1 | 2.1 | 1.7 | – | – |
| CG10214 | 1 | -0.2 | -0.4 | – | – |
| Tsen54 (tRNA splicing endonuclease subunit 54) | 1 | -0.2 | 0 | – | – |
| Jon99Ci (Jonah 99Ci) | 1 | -0.1 | -0.4 | – | – |
| CG31633 | 1 | -0.3 | -0.3 | – | – |
| CG13627 | 1 | -0.5 | -0.5 | – | – |
| Cpr62Bb (Cuticular protein 62Bb) | 1 | -0.4 | -0.5 | – | – |
| Adf1 (Adh transcription factor 1) | 1 | 0.1 | 0.1 | – | – |
| Adf1 (Adh transcription factor 1) | 2 | -0.2 | 0 | – | – |
| CG2211 | 1 | -0.3 | 0.3 | – | – |
| CG6484 | 1 | -0.2 | 0 | – | – |
| CG11357 | 1 | -0.3 | -0.5 | – | – |
| Naprt (Nicotinate phosphoribosyltransferase) | 1 | -0.3 | -0.6 | – | – |
| CG42458 | 1 | -0.4 | 0.4 | – | – |
| CG14113 | 1 | -0.2 | -0.6 | – | – |
| CG11920 | 1 | 0.3 | 1.7 | – | – |
| Idh3b (Isocitrate dehydrogenase 3b) | 1 | -0.1 | -0.4 | – | – |
| Ir7d (Ionotropic receptor 7d) | 1 | -0.1 | 0.1 | – | – |
| SuUR (Suppressor of Under-Replication) | 1 | -0.3 | 0.3 | – | – |
| CG3842 | 1 | -0.3 | -0.2 | – | – |
| JMJD6 (Jumonji domain containing 6) | 1 | -0.1 | 0.2 | – | – |
| CG5024 | 1 | -0.2 | -0.8 | – | – |
| CG11370 | 1 | 0 | -0.2 | – | – |
| CG8229 | 1 | -0.2 | -0.6 | – | – |
| prtp (pretaporter) | 1 | -0.5 | -0.5 | -0.1 | -0.5 |
| CG12498 | 1 | -0.1 | -0.3 | – | – |
| CG14234 | 1 | 0.3 | 0.3 | – | – |
| CG14234 | 2 | 0.1 | 0.6 | – | – |
| Ctu2 (Cytosolic thiouridylase subunit 2) | 1 | -0.3 | -0.2 | – | – |
| AsnRS-m (Asparaginyl-tRNA synthetase, mitochondrial) | 1 | 0.1 | -0.1 | – | – |
| yip2 (yippee interacting protein 2) | 1 | -0.2 | -0.3 | – | – |
| Tbc1d22 (TBC1 domain family member 22) | 1 | -0.2 | 0 | – | – |
| CG13679 | 1 | -0.2 | -0.2 | -0.2 | -0.1 |
| Nepl17 (Neprilysin-like 17) | 1 | -0.3 | -0.9 | – | – |
| CG42269 | 1 | -0.4 | -0.2 | – | – |
| CG42269 | 2 | -0.3 | 0.8 | – | – |
| CG13258 | 1 | -0.3 | -0.4 | – | – |
| CG12204 | 1 | 0 | -0.2 | – | – |
| CG5139 | 1 | -0.2 | -0.4 | – | – |
| Lsm11 | 1 | -0.1 | -0.2 | – | – |
| fs(1)M3 (female sterile (1) M3) | 1 | -0.3 | -0.7 | – | – |
| CG14573 | 1 | -0.2 | -0.3 | – | – |
| CG1801 | 1 | 0.1 | 0.5 | – | – |
| Jon99Ciii (Jonah 99Ciii) | 1 | 4.3 | 2.4 | – | – |
| CG34248 | 1 | 0.1 | -0.1 | – | – |
| MED31 (Mediator complex subunit 31) | 1 | 0 | 1 | – | – |
| shtd (shattered) | 1 | 0 | 0.1 | – | – |
| nan (nanchung) | 1 | -0.3 | -0.2 | – | – |
| CG11044 | 1 | -0.4 | -0.4 | – | – |
| CG8155 | 1 | -0.3 | -0.2 | – | – |
| yellow-f | 1 | 0 | -0.1 | – | – |
| ScsbetaA (Succinyl-coenzyme A synthetase beta subunit, ADP-forming) | 1 | -0.3 | -0.3 | – | – |
| cact (cactus) | 1 | 0.4 | 1.6 | – | – |
| sei (seizure) | 1 | -0.2 | -0.8 | – | – |
| CG3222 | 1 | -0.2 | -0.6 | – | – |
| Shawn + Tyler | 1 | -0.2 | -0.5 | – | – |
| Shawn + Tyler | 2 | -0.4 | -0.6 | – | – |
| Mal-A3 (Maltase A3) | 1 | 0.4 | 0 | – | – |
| CG1806 | 1 | -0.3 | -0.6 | – | – |
| upd2 (unpaired 2) | 1 | -0.4 | -0.6 | – | – |
| CG11050 | 1 | 0.4 | 0.2 | – | – |
| Dpy-30L1 (Dpy-30-like 1) | 1 | -0.3 | -0.5 | – | – |
| CG9021 | 1 | -0.4 | -0.5 | – | – |
| Nepl13 (Neprilysin-like 13) | 1 | -0.2 | -0.2 | – | – |
| Atg17 (Autophagy-related 17) | 1 | -0.3 | -1.2 | – | – |
| Pgant9 (Polypeptide N-Acetylgalactosaminyltransferase 9) | 1 | -0.8 | -0.3 | – | – |
| Pgant9 (Polypeptide N-Acetylgalactosaminyltransferase 9) | 2 | -0.3 | -0.3 | – | – |
| Pgant9 (Polypeptide N-Acetylgalactosaminyltransferase 9) | 3 | -0.3 | -0.1 | – | – |
| Pgant9 (Polypeptide N-Acetylgalactosaminyltransferase 9) | 4 | -0.4 | -0.3 | – | – |
| Pgant9 (Polypeptide N-Acetylgalactosaminyltransferase 9) | 5 | 0 | -0.7 | – | – |
| Pgant9 (Polypeptide N-Acetylgalactosaminyltransferase 9) | 6 | -0.1 | -0.2 | – | – |
| Gycbeta100B (Guanylyl cyclase beta-subunit at 100B) | 1 | -0.2 | -0.2 | – | – |
| Gycbeta100B (Guanylyl cyclase beta-subunit at 100B) | 2 | -0.3 | -0.5 | – | – |
| Gycbeta100B (Guanylyl cyclase beta-subunit at 100B) | 3 | -0.2 | -0.2 | – | – |
| CG7094 | 1 | -0.2 | -0.1 | – | – |
| for (foraging) | 1 | -0.4 | -0.5 | – | – |
| for (foraging) | 2 | -0.3 | -0.4 | – | – |
